This list was built around the results that the source calls inconclusive (neither active nor inactive); the mix of calls is not that of the screen. Potencies beside an inconclusive call are fits to weak or partial responses and may not hold up. Activity calls are given as the source filed them. Calls come from the whole dose curve; as a rule, active = well fitted cell-killing curve with a large enough effect; inconclusive = small, poorly fitted or top-dose-only effect, or effect the other way; inactive = no such curve, though single readings can be large or run the other way.
tested on: C33A; experiment: Confirmatory qHTS for gynecologic anti-cancer compounds from libraries of approved drugs and bioactive compounds; settings: gynecologic cancer cell panel viability, ATPlite luminescence, 48 h; series mostly up to 57.6 µM; note: nearly all actives have a fitted effect of over 55% in size
Procedure, shortened: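 Cells (1,000/well) were plated, left 16 h at 37 C/5% CO2, then given compound at 11 concentrations (1:3) from 57.5 uM to 0.977 nM for 48 h. ATPlite luminescence after 15 min at room temperature gave IC50 values.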
Potency is the fitted concentration of half-maximal effect.

| SMILES | Potency |
| --- | --- |
| CNC(=O)c1ccccc1Nc1nc(Nc2ccc(N3CCOCC3)cc2OC)ncc1Cl | inconclusive: 13.7 µM [cytotoxic, partial curve] |
| CNCc1ccc(-c2[nH]c3cc(F)cc4c3c2CCNC4=O)cc1 | inactive |
| Cc1cc(C(C)Nc2ccccc2C(=O)O)c2nc(N3CCOCC3)cc(=O)n2c1 (stereo unspecified) | inconclusive: 19.3 µM [cytotoxic, partial curve] |
| CC(Oc1ccc2[nH]nc(/C=C/c3cnn(CCO)c3)c2c1)c1c(Cl)cncc1Cl (stereo unspecified) | inactive |
| NC(=O)c1ccc2nc(-c3ccc(Oc4ccc(Cl)cc4)cc3)[nH]c2c1 | inactive |
| CCN(CC)CCOc1ccc(/C(=C(\Cl)c2ccccc2)c2ccccc2)cc1 | active: 79.4 µM |
| COC(=O)c1ccc2c(C(=Nc3ccc(N(C)C(=O)CN4CCN(C)CC4)cc3)c3ccccc3)c(O)[nH]c2c1 | inconclusive: 21.7 µM [cytotoxic, partial curve] |
| COCCOc1nc(-c2ccc(Cl)c(Cl)c2)n(-c2ccc(NC(=O)CCl)cc2)n1 | active: 4.32 µM |
| CN1C(=O)C(Cc2c[nH]c3ccccc23)NC1=S (stereo unspecified) | inactive |
| CCc1c2c(nc3ccc(O)cc13)-c1cc3c(c(=O)n1C2)COC(=O)[C@]3(O)CC | inconclusive: 0.0968 µM [cytotoxic, full curve] |
| Cc1nc(N)sc1-c1ccnc(Nc2ccc(N3CCOCC3)cc2)n1 | inconclusive: 6.85 µM [cytotoxic, partial curve] |
| Cc1cc(Nc2nc(N[C@@H](C)c3ccc(F)cc3)c(C#N)cc2F)n[nH]1 | inactive |
| CN1C2CCC1CC(OC(=O)[C@H](CO)c1ccccc1)C2 (stereo partly specified) | inactive |
| CCOc1ccc(Nc2nc(-c3c(C)nc4ccccn34)cs2)cc1 | inconclusive: 1.37 µM [cytotoxic, full curve] |
| COc1cccc2c1C(=O)c1c(O)c3c(c(O)c1C2=O)C[C@@](O)(C(=O)CO)C[C@@H]3O[C@H]1C[C@H](N)[C@H](O)[C@H](C)O1 | active: 1.22 µM |
| Cc1nc(Nc2n[nH]c3c2CN(C(=O)NC(CN(C)C)c2ccccc2)C3(C)C)c2sccc2n1 (stereo unspecified) | inconclusive: 5.44 µM [cytotoxic, full curve] |

| SMILES | Potency |
| --- | --- |
| CCCCN(CCCC)CC(O)c1cc(Cl)cc2c1-c1ccc(Cl)cc1/C2=C/c1ccc(Cl)cc1 (stereo unspecified) | inconclusive: 43.2 µM [cytotoxic, partial curve, poor fit] |
| Nc1nccc(Oc2ccc(NC(=O)c3c[nH]cc(-c4ccc(F)cc4)c3=O)cc2F)c1Cl | inconclusive: 21.7 µM [cytotoxic, partial curve] |
| COc1cc(N2CCC(N3CCN(C)CC3)CC2)ccc1Nc1ncc(Cl)c(Nc2ccccc2S(=O)(=O)C(C)C)n1 | active: 27.3 µM |
| CNC(=O)c1ccccc1Sc1ccc2c(/C=C/c3ccccn3)n[nH]c2c1 | inconclusive: 12.2 µM [cytotoxic, partial curve] |
| Nc1nc(Cl)nc2c1ncn2C1OC(CO)C(O)C1F (stereo unspecified) | inconclusive: 0.193 µM [cytotoxic, full curve] |
| Cc1nc2ccc(CN(C)c3ccc(C(=O)NC(CCC(=O)O)C(=O)O)s3)cc2c(=O)[nH]1 (stereo unspecified) | inconclusive: 0.0485 µM [cytotoxic, full curve] |
| CCCCc1nc2cc(/C=C/C(=O)NO)ccc2n1CCN(CC)CC | active: 1.53 µM |
| O=C1c2c(O)ccc(O)c2C(=O)c2c(NCCNCCO)ccc(NCCNCCO)c21 | active: 0.306 µM |
| COc1cccc2c1C(=O)c1c(O)c3c(c(O)c1C2=O)C[C@@](O)(C(=O)CO)C[C@@H]3O[C@H]1C[C@H](N)[C@H](O[C@@H]2CCCCO2)[C@H](C)O1 | active: 2.43 µM |
| CCC(=O)N1CCN(c2ccc(-n3c(=O)ccc4cnc5ccc(-c6cnc7ccccc7c6)cc5c43)cc2C(F)(F)F)CC1 | inconclusive: 0.0789 µM [cytotoxic, full curve] |
| CC(C)c1nn(-c2c(Cl)cccc2Cl)c2nc(Cc3ccc(OCCO)cc3)[nH]c(=O)c12 | active: 0.0968 µM |
| COc1cc(C(=O)N2CCC(N3CCN(C)CC3)CC2)ccc1Nc1ncc2c(n1)N(C)c1ccccc1C(=O)N2C | inactive |
| COc1cc2c(c(OC)c1OC)-c1ccc(OC)c(=O)cc1[C@@H](NC(C)=O)CC2 | inconclusive: 0.251 µM [cytotoxic, full curve] |
| CC(C)Oc1ccc2c(=O)c(-c3ccccc3)coc2c1 | inconclusive: 21.7 µM [cytotoxic, partial curve] |
| CCN(CC)CCNC(=O)c1c(C)[nH]c(/C=C2\C(=O)Nc3ccc(F)cc32)c1C | active: 22.4 µM |

Looked up by compound from the list above (2):

| SMILES | Potency |
| --- | --- |
| CCCCc1nc2cc(/C=C/C(=O)NO)ccc2n1CCN(CC)CC | active: 1.53 µM |
| COc1cc2c(c(OC)c1OC)-c1ccc(OC)c(=O)cc1[C@@H](NC(C)=O)CC2 | inconclusive: 0.251 µM [cytotoxic, full curve] |
